In patent US20230042729A1, “PEPTIDE CONSTRUCTS AND COMPOSITIONS” (DIET4LIFE APS, priority 2019, published 2023):
Not every detail of the peptide structures is certain; ends, links or a residue may be inferred. Residues, ends and D or L forms follow the SMILES beside them. No end group written: not given here.

By UniProt entry, the sequences of proteins in these tests, tags left out.
UniProt O88319, whole entry: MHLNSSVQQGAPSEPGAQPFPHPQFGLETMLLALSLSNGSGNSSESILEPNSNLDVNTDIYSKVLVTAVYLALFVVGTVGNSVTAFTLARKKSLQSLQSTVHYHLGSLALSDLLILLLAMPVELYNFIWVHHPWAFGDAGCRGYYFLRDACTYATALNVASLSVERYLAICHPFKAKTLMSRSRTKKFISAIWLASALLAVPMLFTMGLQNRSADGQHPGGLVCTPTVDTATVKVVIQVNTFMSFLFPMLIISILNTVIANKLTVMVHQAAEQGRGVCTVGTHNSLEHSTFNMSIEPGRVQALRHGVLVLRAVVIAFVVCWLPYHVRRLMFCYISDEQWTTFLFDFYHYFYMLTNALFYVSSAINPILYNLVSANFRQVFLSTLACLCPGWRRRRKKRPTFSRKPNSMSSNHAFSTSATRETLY

Columns and labels:
[1] = Gastric emptying studies in mice (phenol red); assay type: in vivo, Swiss Webster mice; details: gavage, in combination with potato protein (PP) and DC7 crude protein hydrolysate (FIG. 22)
[2] = Feed intake in mice after DC7-2 in PBS/BSA vehicle (FIG. 18); assay type: in vivo, Swiss Webster male mice; details: 6 h during dark cycle; four experiments, 6-8 mice per treatment
[3] = tested on: human (hIC) intestinal cells; experiment: Calcium response in human intestinal cells (hIC); assay type: cell-based; details: truncations (FIG. 6)
[4] = target: murine intestinal cells (Mus musculus, UniProt O88319); experiment: Ca2+ flux / calcium response assay (cell signaling activity); assay type: cell-based; details: mIC cells; truncations (FIG. 6)
Experimental: Ca^2+ Flux Assay/Calcium Response Assay:
Elevation of intracellular calcium level was measured using the fluorescent calcium chelating dye Fluo-4 AM (ThermoFischer Scientific, Denmark). Briefly, cells were grown as a monolayer in 96-well tissue culture plates (Sarstedt, Germany) to near confluence in appropriate growth medium as described in the cell culture section.
All test compounds were dissolved in water, and then diluted in 1×HBSS containing 25 mM HEPES (pH 7.4), 1% BSA and 2% ink. […]

Molecule | gastric emptying [1] | Accumulated feed intake compared with control [2] [%+/−5] | activity in hIC [3] | activity/potency compared with the full sequence ASDKPYIL [4]
ASDKPYIL [Peptide 36036, A SDKPYIL] | inhibits gastric emptying | 64 | – | –
CC[C@H](C)[C@H](NC(=O)[C@H](Cc1ccc(O)cc1)NC(=O)[C@@H]1CCCN1)C(=O)N[C@@H](CC(C)C)C(=O)O [PYIL] (H-PYIL-OH; N-terminus and C-terminus assumed) | – | – | no activity | two orders of magnitude lower activity
